Laboratory results: PMC3795721
Construct, isoform or probe ends are uncertain for at least one entry. Whether high values mean tight binding is not given here for every scale.

By UniProt entry, the sequences of proteins in these tests, tags left out. Residues count along the entry.
UniProt Q8S8P5, 356-421: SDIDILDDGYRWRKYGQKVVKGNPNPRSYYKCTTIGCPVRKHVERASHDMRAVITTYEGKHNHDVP

Target: AtWRKY33 cDBD (Arabidopsis thaliana) (UniProt Q8S8P5)
Test: DPI-ELISA
Settings: DPI-ELISA on streptavidin plates with biotinylated dsDNA (1 pmol in Figure S1, 2 pmol in Figure 1 legend) and crude E. coli extract, anti-His detection, recombinant protein, protein details: C-terminal His (pET-DEST42), label: 5' biotin on forward strand
[1] = threshold >1.9, protein block assigned from GACY motif

Sequence | binding signal (relative normalized absorbance) (threshold >1.9, protein block assigned from motif) | binding signal (relative normalized absorbance) [1]
AAAAAACATCGCTGTCGTTGACGTTGAAAA (double strand) [library probe 276] | 2.34 | –
AAAAAAGTCCGCCCTTAATTCATATTAAAA (double strand) [library probe 54] | – | 2.35
AAAAAAGGCGTCTGACTGTAACTCGTAAAA (double strand) [library probe 108] | – | 2.35
AAAAAAAGTCTGCGGCTGCAGGGCGGAAAA (double strand) [library probe 92] | – | 2.36
AAAAAAGGCGGTCGTAGTTGTGGGAGAAAA (double strand) [library probe 222] | – | 2.35
AAAAAAGTCTAAGGACTTATAGCTGTAAAA (double strand) [library probe 101] | – | 2.37
